{
  "source": "paper PMC1097723",
  "key": {"[1]": {"biological_target": "T1, GFP-AIDA-1c (human) (UniProt Q7Z6G8)", "T1 sequence": "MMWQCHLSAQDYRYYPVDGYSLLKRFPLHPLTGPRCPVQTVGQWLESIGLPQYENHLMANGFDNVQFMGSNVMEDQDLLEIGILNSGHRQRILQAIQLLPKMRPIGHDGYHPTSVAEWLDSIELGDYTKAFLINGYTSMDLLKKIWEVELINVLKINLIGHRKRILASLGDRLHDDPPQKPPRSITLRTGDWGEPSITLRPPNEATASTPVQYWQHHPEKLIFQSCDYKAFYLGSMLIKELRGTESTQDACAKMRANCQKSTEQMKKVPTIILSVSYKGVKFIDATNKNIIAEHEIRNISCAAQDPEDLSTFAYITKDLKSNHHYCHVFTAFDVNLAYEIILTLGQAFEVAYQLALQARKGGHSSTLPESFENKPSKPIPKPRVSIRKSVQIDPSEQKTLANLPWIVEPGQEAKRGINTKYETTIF", "assay": "co-IP; lysate of HeLa cells transfected with GFP, GFP-AIDA-1c or YFP-AIDA-1a; immunoprecipitation with anti-GFP antibodies, Western blotting with anti-coilin; modified RIPA buffer"}, "[2]": {"biological_target": "T2, YFP-AIDA-1a (UniProt Q7Z6G8)", "T2 sequence": "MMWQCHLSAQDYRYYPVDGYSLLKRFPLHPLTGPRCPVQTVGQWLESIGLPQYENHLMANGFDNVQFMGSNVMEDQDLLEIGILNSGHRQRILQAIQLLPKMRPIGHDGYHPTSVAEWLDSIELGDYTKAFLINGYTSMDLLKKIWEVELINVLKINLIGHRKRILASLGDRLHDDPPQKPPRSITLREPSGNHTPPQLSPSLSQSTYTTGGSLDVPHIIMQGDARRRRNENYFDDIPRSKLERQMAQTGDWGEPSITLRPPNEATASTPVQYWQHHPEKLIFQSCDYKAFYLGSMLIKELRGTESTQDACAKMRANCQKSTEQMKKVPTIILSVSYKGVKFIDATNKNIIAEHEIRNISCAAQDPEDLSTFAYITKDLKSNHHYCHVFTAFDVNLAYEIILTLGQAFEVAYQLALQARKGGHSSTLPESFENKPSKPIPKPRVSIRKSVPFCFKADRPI", "assay": "co-IP; lysate of HeLa cells transfected with GFP, GFP-AIDA-1c or YFP-AIDA-1a; immunoprecipitation with anti-GFP antibodies, Western blotting with anti-coilin; modified RIPA buffer"}, "[3]": {"biological_target": "T3, GST-AIDA-1c (human) (UniProt Q7Z6G8)", "T3 sequence": "T1 sequence", "assay": "pull-down; purified coilin incubated with GST-AIDA-1c on beads in mRIPA (150 mM NaCl) plus 2 mM DTT, 1 hour at 4°C; Western blotting with anti-coilin; both purified"}, "[4]": {"biological_target": "T3, GST-AIDA-1c (human)", "assay": "condition: only with increasing NaCl concentrations in the binding buffer; pull-down; as a6 but with additional NaCl in the binding buffer (increasing concentrations, lanes 3–5 of Figure 4B); both purified"}},
  "note": "Results are given in words; binding and its absence hold for the method and conditions named. For some of these results: In cells and extracts the contact can be indirect. Some entries that bind do so weakly or less than the wild type. Tags and fused reporters may be left off the sequences shown.",
  "data": [
    {"substance": "coilin, endogenous (from UniProt P38432 1-576)", "values": [
      {"measurement": "binding", "setting": "[1]", "result": "binds"},
      {"measurement": "binding", "setting": "[2]", "result": "binds"}
    ]},
    {"substance": "soluble full-length coilin, purified (from UniProt P38432 1-576)", "values": [
      {"measurement": "binding", "setting": "[3]", "result": "binds weakly"},
      {"measurement": "binding", "setting": "[4]", "result": "no binding"}
    ]}
  ]
}
